The series is described as follows: general procedure: Fmoc solid-phase peptide synthesis; TG-S-RAM (Iris Biotech), 0.23 mmol/mg; PyBop / NMM (PyAOP for lactam cyclization). The note with it: whole synthesis; for crude purity (method not given) / final purity (method not given) / crude HPLC purity / final HPLC purity: analytical UHPLC.
Setting [1] is: scale of the general procedure 50 µmol.

No end group written: not given here. *: point of attachment. Boc = CC(C)(C)OC(=O)*

Take “Ac-(N-(2-(n-octadecylamino)-2-oxoethyl)-(cyclo-5,9))-[LKKLKKKLEKKL]-NH2”: under setting [1], the “crude purity (method not given)” value came out at 77% and the “final purity (method not given)” value is over 91%. Also, under “scale 50 µmol”, the crude mass came out at 66.8 mg and the crude yield is on record as 75%.
In the case of Ac-LKKLLKKLLKKL, under setting [1], the “crude HPLC purity” value is given as 86% and the “final HPLC purity” value is given as over 98%. Where the note is “scale 50 µmol”, the crude mass amounted to 69.1 mg and the crude yield was 92%.
With “Ac-(N-(2-(n-butylamino)-2-oxoethyl)-(cyclo-8,12))-[LAKLLKAKAKAD]-NH2”, under setting [1], the “crude purity (method not given)” value came to 54% and the “final purity (method not given)” value is over 94%. Under “scale 50 µmol”, this substance yielded a crude mass of 47.2 mg and a crude yield of 67%.
For “Ac-(N-(2-(n-dodecylamino)-2-oxoethyl)-(cyclo-8,12))-[LAKLLKAKAKAD]-NH2”, under setting [1], the “crude purity (method not given)” value was determined as 63% and the “final purity (method not given)” value was over 91%. Where the note is “scale 50 µmol”, the crude mass turned out to be 64.3 mg and the crude yield was found to be 85%.
For the substance “Ac-(N-(2-(n-octadecylamino)-2-oxoethyl)-(cyclo-3,7))-[LKKLLKELLKKL]-NH2”, under setting [1], the “crude purity (method not given)” value is 68% and the “final purity (method not given)” value is reported as over 90%. Where the note is “scale 50 µmol”, this substance had a crude mass of 72.4 mg and a crude yield of 81%.
Consider Ac-LAK(Boc)LLK(Boc)AKAK(Boc)AD, for which, for the setting “scale 50 µmol”, the “crude purity (method not given)” value is on record as over 83% and the “final purity (method not given)” value is given as over 98%.
Take “Ac-(N-(2-(n-octadecylamino)-2-oxoethyl)-(cyclo-8,12))-[LKKLLKKKLKKE]-NH2”: under setting [1], the “crude purity (method not given)” value is 71% and the “final purity (method not given)” value is listed as over 93%. Under “scale 50 µmol”, this substance gave a crude mass of 68.1 mg and a crude yield of 76%.
Ac-(cyclo-8,12))-[LKKLLKKKLKKE]-NH2: under setting [1], the “crude HPLC purity” value amounted to 63% and the “final HPLC purity” value is on record as over 93%. Where the note is “scale 50 µmol”, this substance had a crude mass of 61.5 mg and a crude yield of 81%.
For the substance “Ac-(N-(2-(n-octadecylamino)-2-oxoethyl)-(cyclo-1,5))-[KKKLEKKLLKKL]-NH2”, under setting [1], the “crude purity (method not given)” value was 69% and the “final purity (method not given)” value is given as over 89%. Moreover, where the note is “scale 50 µmol”, the crude mass turned out to be 65.2 mg and the crude yield is 73%.
For the substance Ac-(cyclo-8,12))-[LAKLLKAKAKAD]-NH2, under setting [1], the “crude HPLC purity” value was 37%, the “final HPLC purity” value is over 89% and the difficulty met was 20% of dimerization product was observed in the crude peptide. In addition, under “scale 50 µmol”, the crude mass is given as 48.9 mg and the crude yield is recorded as 81%.

The values above are taken from paper PMC7070897 (Molecules, 2020).
